These are yes or no findings as the source states them, for the method shown. Binding seen in cells or lysates may run through a third protein. Some results given as binding are weak or reduced against the parent protein; the word gives no strength.
Experiments:
[1] = target: HDAC1, endogenous in Neuro2A cells (mouse (endogenous in Neuro2A)) (UniProt O09106); experiment: co-IP; Neuro2A cells transfected with control vector, EGFP-AICDWT, EGFP-AICDK43R or EGFP-AICD-SUMO1 plasmid; lysate immunoprecipitated with anti-HDAC1 antibody and immunoblotted with anti-CREB, anti-p65 and anti-HDAC1 antibodies
[2] = target: EGFP-AICD wild-type (AICD50), in HEK293T cells (UniProt P05067); experiment: co-IP; HEK293T cells co-transfected with EGFP-tagged AICD plasmids and V5-Fe65 or FLAG-HDAC1 plasmid; lysate 48 h after transfection immunoprecipitated with anti-EGFP antibody and immunoblotted with anti-V5 or anti-FLAG antibody
[3] = target: EGFP-AICD wild-type (AICD50), expressed in the rat hippocampal CA1 area (UniProt P05067); experiment: co-IP; EGFP-tagged AICD plasmids transfected into the rat CA1 area (PEI), tissue taken 48 h later; lysate immunoprecipitated with anti-EGFP antibody and immunoblotted with anti-CREB and anti-p65 antibodies

The chains behind the UniProt entries cited, without tags or fusion partners. Residues count along the entry.
UniProt O09106: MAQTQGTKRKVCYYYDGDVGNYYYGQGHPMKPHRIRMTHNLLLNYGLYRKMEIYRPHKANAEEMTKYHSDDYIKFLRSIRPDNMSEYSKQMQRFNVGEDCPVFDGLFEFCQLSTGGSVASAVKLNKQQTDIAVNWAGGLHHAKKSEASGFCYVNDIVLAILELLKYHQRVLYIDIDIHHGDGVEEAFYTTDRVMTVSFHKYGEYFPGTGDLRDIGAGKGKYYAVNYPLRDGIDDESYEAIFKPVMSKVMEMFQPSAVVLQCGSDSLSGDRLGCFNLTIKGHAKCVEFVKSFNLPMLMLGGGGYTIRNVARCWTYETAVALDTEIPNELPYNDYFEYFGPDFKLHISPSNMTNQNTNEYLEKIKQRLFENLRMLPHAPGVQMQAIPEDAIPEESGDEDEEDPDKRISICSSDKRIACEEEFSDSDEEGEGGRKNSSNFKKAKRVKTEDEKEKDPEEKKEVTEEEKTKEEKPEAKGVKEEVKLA
UniProt P05067, residues 721-770: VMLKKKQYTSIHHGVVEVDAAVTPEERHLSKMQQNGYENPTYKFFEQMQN
UniProt Q01147: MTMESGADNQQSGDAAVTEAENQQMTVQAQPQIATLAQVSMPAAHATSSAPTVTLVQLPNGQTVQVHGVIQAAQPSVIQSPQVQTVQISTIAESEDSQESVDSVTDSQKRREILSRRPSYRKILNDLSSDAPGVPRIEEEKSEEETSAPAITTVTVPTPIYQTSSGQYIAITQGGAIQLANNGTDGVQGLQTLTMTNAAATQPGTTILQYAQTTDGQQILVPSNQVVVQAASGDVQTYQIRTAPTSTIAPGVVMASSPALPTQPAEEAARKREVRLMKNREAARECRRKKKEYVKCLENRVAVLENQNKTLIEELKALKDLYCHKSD
UniProt Q13547: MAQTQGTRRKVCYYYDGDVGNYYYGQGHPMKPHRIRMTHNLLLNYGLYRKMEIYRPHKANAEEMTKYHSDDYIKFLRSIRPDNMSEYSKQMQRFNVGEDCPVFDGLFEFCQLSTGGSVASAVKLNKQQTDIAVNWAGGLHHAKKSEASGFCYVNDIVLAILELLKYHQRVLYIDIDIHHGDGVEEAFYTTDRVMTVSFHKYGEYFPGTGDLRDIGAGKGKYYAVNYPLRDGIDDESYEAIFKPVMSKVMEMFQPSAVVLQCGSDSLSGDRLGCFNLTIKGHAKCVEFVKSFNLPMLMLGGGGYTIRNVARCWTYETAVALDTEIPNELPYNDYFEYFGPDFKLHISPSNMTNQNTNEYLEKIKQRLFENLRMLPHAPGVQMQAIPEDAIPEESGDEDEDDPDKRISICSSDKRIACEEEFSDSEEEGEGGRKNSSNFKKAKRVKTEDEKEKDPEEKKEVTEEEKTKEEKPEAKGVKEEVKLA
UniProt Q7TQN4: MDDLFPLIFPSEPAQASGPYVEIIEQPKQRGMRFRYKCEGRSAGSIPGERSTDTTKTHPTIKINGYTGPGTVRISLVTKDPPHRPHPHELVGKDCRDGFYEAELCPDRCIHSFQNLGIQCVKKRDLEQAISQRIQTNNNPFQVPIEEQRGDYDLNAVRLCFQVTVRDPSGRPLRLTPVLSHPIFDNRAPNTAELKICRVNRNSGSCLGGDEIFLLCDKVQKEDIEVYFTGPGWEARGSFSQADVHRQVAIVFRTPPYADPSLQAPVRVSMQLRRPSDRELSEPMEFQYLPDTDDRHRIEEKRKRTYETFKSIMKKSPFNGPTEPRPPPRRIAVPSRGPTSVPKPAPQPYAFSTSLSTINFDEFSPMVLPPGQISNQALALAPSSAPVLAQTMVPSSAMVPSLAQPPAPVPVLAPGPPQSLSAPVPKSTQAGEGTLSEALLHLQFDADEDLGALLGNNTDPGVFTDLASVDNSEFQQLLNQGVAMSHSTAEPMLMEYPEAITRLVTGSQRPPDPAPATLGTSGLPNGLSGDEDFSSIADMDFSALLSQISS
UniProt Q04207: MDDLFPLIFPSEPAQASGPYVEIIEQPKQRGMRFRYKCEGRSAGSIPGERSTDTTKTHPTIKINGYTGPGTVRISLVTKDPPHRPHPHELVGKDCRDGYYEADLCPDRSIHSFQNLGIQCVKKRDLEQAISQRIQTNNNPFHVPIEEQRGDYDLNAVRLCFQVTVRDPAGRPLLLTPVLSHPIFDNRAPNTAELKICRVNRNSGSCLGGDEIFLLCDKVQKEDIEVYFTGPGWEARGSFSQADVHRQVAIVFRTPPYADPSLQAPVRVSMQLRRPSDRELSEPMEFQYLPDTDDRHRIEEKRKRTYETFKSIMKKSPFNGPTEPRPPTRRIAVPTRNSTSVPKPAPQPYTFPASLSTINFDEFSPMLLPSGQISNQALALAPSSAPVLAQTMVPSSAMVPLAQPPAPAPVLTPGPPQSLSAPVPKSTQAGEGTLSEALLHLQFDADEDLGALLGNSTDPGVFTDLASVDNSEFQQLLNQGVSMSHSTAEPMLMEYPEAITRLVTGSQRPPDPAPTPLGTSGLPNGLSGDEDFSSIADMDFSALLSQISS

Substance: CREB, endogenous in Neuro2A cells (from UniProt Q01147 1-327)
- binding [1]: binds

Substance: FLAG-HDAC1 (from UniProt Q13547 1-482) (enzyme)
- binding [2]: binds

Substance: p65 (a subunit of NF-κB), rat hippocampus (from UniProt Q7TQN4 1-550)
- binding [3]: binds

Substance: p65, endogenous in Neuro2A cells (from UniProt Q04207 1-549)
- binding [1]: binds

Reference: PMC7791018
